Tests used:
[1] = target: T1, G-protein coupled receptor 35 (Homo sapiens, UniProt Q9HC97); assay: Agonist activity at human GPR35 by Ca+2 release assay
[2] = target: T1, G-protein coupled receptor 35; assay: Agonist activity at C-terminal beta-galactosidase tagged human recombinant GPR35 expressed in CHO cells after 90 mins by beta-arrestin recruitment assay; assay type: cell-based
[3] = target: T1, G-protein coupled receptor 35; assay: biochemical; assay type: cell-based, CHO

Amino acid sequences for entries named in this document (tags omitted). A change or cut given only in a name is not applied to a line headed by its entry.
UniProt Q9HC97: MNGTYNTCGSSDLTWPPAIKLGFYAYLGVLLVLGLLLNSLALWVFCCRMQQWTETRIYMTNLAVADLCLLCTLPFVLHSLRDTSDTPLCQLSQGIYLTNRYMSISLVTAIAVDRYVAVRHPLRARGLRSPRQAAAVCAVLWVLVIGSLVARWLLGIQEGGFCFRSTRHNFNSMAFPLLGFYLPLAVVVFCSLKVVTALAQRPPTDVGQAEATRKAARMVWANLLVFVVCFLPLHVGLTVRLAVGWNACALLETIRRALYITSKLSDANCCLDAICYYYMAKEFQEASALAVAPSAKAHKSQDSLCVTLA

EC50 [1]: 6.2 µM
EC50 [2]: 11.2 µM
Ki [3]: 3.27 µM
Compound: NS(=O)(=O)c1cc(C(=O)O)c(NCc2ccco2)cc1Cl [FUROSEMIDE]

From ChEMBL document CHEMBL2424638, “6-Bromo-8-(4-[(3)H]methoxybenzamido)-4-oxo-4H-chromene-2-carboxylic Acid: a powerful tool for studying orphan G protein-coupled receptor GPR35” (J Med Chem, 2013)
